Measurements: PMC3771913

Target: T1, Dorsal (Drosophila (endogenous in wild-type ovaries)) (UniProt P15330)
T1 sequence: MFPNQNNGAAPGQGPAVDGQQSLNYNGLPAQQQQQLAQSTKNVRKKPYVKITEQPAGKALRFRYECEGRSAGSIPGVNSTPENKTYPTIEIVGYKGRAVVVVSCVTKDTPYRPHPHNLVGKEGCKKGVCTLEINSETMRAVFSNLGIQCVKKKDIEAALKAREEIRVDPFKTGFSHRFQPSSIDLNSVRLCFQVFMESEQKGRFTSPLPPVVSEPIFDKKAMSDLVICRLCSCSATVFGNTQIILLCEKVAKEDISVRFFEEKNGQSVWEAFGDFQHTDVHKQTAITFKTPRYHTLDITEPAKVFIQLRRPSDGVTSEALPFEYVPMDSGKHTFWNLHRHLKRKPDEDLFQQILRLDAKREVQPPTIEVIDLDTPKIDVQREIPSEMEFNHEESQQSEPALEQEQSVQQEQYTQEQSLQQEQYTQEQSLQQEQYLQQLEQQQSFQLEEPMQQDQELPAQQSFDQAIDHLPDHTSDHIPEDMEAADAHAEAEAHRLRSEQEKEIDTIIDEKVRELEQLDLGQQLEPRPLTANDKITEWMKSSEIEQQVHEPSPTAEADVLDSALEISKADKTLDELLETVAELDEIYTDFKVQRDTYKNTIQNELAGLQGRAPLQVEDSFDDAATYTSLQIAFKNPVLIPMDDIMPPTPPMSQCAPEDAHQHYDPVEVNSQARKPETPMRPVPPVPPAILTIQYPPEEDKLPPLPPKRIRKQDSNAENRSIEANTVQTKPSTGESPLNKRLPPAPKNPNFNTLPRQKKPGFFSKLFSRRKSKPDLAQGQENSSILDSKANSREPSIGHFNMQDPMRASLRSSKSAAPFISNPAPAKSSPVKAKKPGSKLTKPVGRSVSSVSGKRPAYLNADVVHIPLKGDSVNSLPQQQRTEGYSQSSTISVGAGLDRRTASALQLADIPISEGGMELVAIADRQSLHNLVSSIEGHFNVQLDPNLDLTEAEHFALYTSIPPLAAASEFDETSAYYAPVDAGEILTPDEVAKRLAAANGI
Experiment: co-IP; wild-type ovary extracts in IP buffer (20 mM Hepes pH 7.5, 150 mM NaCl, 0.5% Triton X-100) with RNase A; antibodies cross-linked to Protein G Plus/Protein A-agarose beads, overnight at 4°C; Western blot

Row | binding | Substance
1 | no binding | Orb (oo18 RNA-binding)
2 | no binding | Rasputin (Rin)

No constants are given. Whether binding was seen depends on the method and setting. In cells and extracts the contact can be indirect.
